Only a part is listed here, and it is no random draw. The calls were merged from several studies; some rest on single wells. The list shows a part of the results.
Columns and labels:
Details in all cases: stereoisomer not certain
OR5T1 (Homo sapiens) = target: T1, OR5T1 (Homo sapiens) (UniProt Q8NG75)
T1 sequence (whole entry): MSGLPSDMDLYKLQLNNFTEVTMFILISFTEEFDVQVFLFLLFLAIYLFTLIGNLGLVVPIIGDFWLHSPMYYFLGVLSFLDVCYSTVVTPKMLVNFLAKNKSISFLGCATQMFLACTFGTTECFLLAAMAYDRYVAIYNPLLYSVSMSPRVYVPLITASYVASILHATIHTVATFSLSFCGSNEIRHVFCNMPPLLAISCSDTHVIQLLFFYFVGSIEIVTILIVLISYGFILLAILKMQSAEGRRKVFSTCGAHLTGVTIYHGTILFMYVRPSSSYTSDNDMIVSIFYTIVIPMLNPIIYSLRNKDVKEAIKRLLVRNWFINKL
In short: (§1)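 Whether a receptor–molecule pair is responsive (active) rests on the original authors' judgment that its measured signal was statistically different from baseline. Pairs without that judgment are non-responsive (inactive). Sources used varied assay methods, commonly transient luciferase assays in mammalian cell lines.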

OR5T1 = tested on: T2, OR5T1
T2 sequence (whole entry): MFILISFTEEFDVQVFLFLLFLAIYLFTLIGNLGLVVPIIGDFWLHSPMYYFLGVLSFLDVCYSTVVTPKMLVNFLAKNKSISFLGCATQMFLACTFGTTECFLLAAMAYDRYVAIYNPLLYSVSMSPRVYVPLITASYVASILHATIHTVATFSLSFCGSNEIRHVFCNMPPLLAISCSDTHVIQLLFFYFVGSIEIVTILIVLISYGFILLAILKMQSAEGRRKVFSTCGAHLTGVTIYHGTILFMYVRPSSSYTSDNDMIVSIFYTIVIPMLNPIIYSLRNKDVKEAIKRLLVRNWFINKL
In short: as §1

OR5T2 [1] = tested on: T3, OR5T2
T3 sequence (whole entry): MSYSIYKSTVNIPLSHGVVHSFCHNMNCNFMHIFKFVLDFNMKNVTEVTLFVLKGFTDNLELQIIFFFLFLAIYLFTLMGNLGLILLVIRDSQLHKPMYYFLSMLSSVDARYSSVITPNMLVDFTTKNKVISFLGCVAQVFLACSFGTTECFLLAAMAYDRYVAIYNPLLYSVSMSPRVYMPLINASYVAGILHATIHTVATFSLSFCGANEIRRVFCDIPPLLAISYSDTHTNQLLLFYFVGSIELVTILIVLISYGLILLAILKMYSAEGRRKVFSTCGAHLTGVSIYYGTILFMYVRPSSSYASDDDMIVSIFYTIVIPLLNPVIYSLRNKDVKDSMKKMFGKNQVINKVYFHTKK
In short: as §1

OR5T2 [2] = tested on: T4, OR5T2; remark: listed apart in the source
T4 sequence (whole entry): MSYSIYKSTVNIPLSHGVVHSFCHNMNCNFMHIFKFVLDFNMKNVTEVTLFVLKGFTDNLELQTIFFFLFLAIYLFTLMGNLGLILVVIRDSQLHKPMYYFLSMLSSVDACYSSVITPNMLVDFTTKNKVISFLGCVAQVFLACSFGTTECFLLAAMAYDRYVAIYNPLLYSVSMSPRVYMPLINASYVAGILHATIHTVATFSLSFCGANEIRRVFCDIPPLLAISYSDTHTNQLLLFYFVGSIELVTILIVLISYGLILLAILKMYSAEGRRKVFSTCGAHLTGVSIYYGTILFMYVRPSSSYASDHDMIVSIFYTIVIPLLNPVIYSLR
In short: as §1

OR5T3 = tested on: T5, OR5T3
T5 sequence (whole entry): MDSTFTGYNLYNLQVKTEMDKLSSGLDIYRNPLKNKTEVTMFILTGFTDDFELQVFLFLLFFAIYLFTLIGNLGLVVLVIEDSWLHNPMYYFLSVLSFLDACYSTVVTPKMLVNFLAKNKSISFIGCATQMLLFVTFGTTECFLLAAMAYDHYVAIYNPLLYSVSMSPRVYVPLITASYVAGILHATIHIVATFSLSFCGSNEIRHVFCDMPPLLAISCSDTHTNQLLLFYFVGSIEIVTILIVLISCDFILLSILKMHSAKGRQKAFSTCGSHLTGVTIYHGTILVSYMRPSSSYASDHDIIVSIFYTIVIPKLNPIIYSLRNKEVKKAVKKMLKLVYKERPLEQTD
In short: as §1

OR5V1 (Homo sapiens) = target: T6, OR5V1 (Homo sapiens) (UniProt Q9UGF6)
T6 sequence (whole entry): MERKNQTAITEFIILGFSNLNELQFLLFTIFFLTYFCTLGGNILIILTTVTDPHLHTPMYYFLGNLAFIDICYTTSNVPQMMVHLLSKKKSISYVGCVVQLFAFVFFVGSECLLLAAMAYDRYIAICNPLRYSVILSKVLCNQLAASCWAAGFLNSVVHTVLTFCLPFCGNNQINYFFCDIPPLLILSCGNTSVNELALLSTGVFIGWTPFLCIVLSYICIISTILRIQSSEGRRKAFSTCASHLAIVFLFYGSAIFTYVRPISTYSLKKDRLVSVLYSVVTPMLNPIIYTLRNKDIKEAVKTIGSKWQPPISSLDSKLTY
In short: as §1

OR5W2 = tested on: T7, OR5W2
T7 sequence (whole entry): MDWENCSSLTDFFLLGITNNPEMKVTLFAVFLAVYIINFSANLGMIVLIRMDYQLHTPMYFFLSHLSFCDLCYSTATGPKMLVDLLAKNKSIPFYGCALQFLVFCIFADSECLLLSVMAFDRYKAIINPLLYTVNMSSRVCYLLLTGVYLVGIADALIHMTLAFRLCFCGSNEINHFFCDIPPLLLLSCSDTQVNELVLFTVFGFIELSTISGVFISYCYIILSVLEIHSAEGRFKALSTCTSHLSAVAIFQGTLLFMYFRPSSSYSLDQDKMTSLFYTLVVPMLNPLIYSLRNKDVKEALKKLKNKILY
In short: as §1

OR6A2 (Homo sapiens) = target: T8, OR6A2 (Homo sapiens) (UniProt O95222)
T8 sequence (whole entry): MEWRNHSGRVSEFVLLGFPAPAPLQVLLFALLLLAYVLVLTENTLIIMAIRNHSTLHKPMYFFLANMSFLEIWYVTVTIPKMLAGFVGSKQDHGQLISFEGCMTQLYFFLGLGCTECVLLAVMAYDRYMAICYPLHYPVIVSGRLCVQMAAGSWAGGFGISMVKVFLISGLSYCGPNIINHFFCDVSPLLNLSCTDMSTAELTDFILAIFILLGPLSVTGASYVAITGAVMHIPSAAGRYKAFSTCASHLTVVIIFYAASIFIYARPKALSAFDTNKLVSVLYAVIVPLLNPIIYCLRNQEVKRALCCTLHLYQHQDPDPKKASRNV
In short: as §1

OR5T2 (Homo sapiens) = OR5T2 (Homo sapiens) (UniProt Q8NGG2)
In short: as §1

OR5T3 (Homo sapiens) = OR5T3 (Homo sapiens) (UniProt Q8NGG3)
In short: as §1

Measured: odorant receptor agonist call;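 further: active if original authors judged signal statistically different from baseline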

CCCCCC(C)=O
not listed: OR5T2 (Homo sapiens) | OR5T3 (Homo sapiens)
inactive: all other assays above

CC12C=CCC1C1CCC3CC(=O)CCC3(C)C1CC2 (stereo not drawn)
inactive: all assays above

CCC=CCCO
not listed: OR5T2 (Homo sapiens) | OR5T3 (Homo sapiens)
inactive: all other assays above

CCCCO
not listed: OR5T2 (Homo sapiens) | OR5T3 (Homo sapiens)
inactive: all other assays above

CC(C)(C)c1ccc(CCC=O)cc1
not listed: OR5T2 (Homo sapiens) | OR5T3 (Homo sapiens)
inactive: all other assays above

CC(C)=CCCC(C)=CC=O
not listed: OR5T2 (Homo sapiens) | OR5T3 (Homo sapiens)
inactive: all other assays above

C=CCc1ccc(OC)c(OC)c1
not listed: OR5T2 (Homo sapiens) | OR5T3 (Homo sapiens)
inactive: all other assays above

CC12CCC(C1)C(C)(C)C2=O (stereo not drawn)
not listed: OR5T2 (Homo sapiens) | OR5T3 (Homo sapiens)
inactive: all other assays above

CC(=O)OC(C)(C)C1CC=C(C)CC1 (stereo not drawn)
not listed: OR5T2 (Homo sapiens) | OR5T3 (Homo sapiens)
inactive: all other assays above

CC(=O)c1ccccc1
not listed: OR5T2 (Homo sapiens) | OR5T3 (Homo sapiens)
inactive: all other assays above

CCCCCCCCOC(C)=O
not listed: OR5T2 (Homo sapiens) | OR5T3 (Homo sapiens)
inactive: all other assays above

COc1cc(C=O)ccc1O
not listed: OR5T2 (Homo sapiens) | OR5T3 (Homo sapiens)
inactive: all other assays above
